In the supplement of paper PMC10470496:
Counter-ions that a name gives are not always drawn. This is one part of the list. Single values are uncertain, as repeats are few or missing.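 Three clinical Candida auris isolates (clades III, IV and I) from the CDC resistance isolate bank were grown in RPMI-1640 at 35°C. Growth was background-corrected OD600 relative to same-plate vehicle-only wells. Hits required over 50% inhibition in at least two strains and a plate-corrected B-score above 0.1.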

Experiments:
Test in all cases: growth relative to vehicle control (OD600 ratio) (fraction); higher = less inhibition
Details in all cases: 24 h
C. auris AR-384 = test system: C. auris AR-384
C. auris AR-386 = test system: C. auris AR-386
C. auris AR-387 = test system: C. auris AR-387

Structure (SMILES) | growth (C. auris AR-384; 1 µM) | growth (C. auris AR-384; 10 µM) | growth (C. auris AR-386; 1 µM) | growth (C. auris AR-386; 10 µM) | growth (C. auris AR-387; 1 µM) | growth (C. auris AR-387; 10 µM)
COc1ccc(Cl)c(Nc2nc3ccccc3nc2NS(=O)(=O)c2cccc(NC(=O)C(C)(C)N)c2)c1 [Pilaralisib (XL147)] | 0.86 | 0.79 | 0.71 | 0.9 | 0.71 | 1.17
Cc1nnc(C(C)C)n1C1C[C@H]2CC[C@@H](C1)N2CC[C@H](NC(=O)C1CCC(F)(F)CC1)c1ccccc1 (stereo in doubt) [Maraviroc] | 0.98 | 0.85 | 0.87 | 1.06 | 0.73 | 0.94
COc1cnc(NS(=O)(=O)c2ccc(N)cc2)nc1 [Sulfameter] | 0.73 | 1.45 | 1.36 | 0.81 | 0.89 | 0.86
C=C1c2cccc(O)c2C(=O)C2=C(O)[C@]3(O)C(=O)C(C(N)=O)=C(O)[C@@H](N(C)C)[C@@H]3[C@@H](O)[C@H]12 [Methacycline HCl] | 1.14 | 1.34 | 1.08 | 1.29 | 1.05 | 1.31
Cc1cc(NS(=O)(=O)c2ccc(N)cc2)no1 [Sulfamethoxazole] | 1.04 | 1.06 | 1.13 | 0.82 | 0.97 | 0.92
Cc1cnc(NC(=O)C2=C(O)c3ccccc3S(=O)(=O)N2C)s1 [Meloxicam] | 0.97 | 1.39 | 1.28 | 0.95 | 1.13 | 1.01
NCCCCCC(=O)O [(6-) ε-Aminocaproic acid] | 0.78 | 1.11 | 1.3 | 0.96 | 1.17 | 1.31
CCCCN1CCCCC1C(=O)Nc1c(C)cccc1C (configuration not stated) [Bupivacaine HCl] | 0.87 | 0.89 | 1.14 | 0.91 | 0.79 | 1.02
C/C=C(/C)C(=O)O[C@H]1[C@H](OC(C)=O)[C@@]2(CO)C(CC1(C)C)C1=CCC3[C@@]4(C)CCC(O[C@@H]5O[C@H](C(=O)O)[C@@H](O[C@@H]6O[C@H](CO)[C@@H](O)[C@H](O)[C@H]6O)[C@H](O)[C@H]5O[C@@H]5O[C@H](CO)[C@@H](O)[C@H](O)[C@H]5O)[C@](C)(CO)C4CC[C@@]3(C)[C@]1(C)C[C@H]2O.C/C=C(\C)C(=O)O[C@H]1[C@H](OC(C)=O)[C@@]2(CO)C(CC1(C)C)C1=CCC3[C@@]4(C)CCC(O[C@@H]5O[C@H](C(=O)O)[C@@H](O[C@@H]6O[C@H](CO)[C@@H](O)[C@H](O)[C@H]6O)[C@H](O)[C@H]5O[C@@H]5O[C@H](CO)[C@@H](O)[C@H](O)[C@H]5O)[C@](C)(CO)C4CC[C@@]3(C)[C@]1(C)C[C@H]2O (some centres not stated) [Escin] | 0.87 | 0.98 | 0.94 | 0.88 | 0.96 | 0.63
CC(C)OC(=O)C(C(=O)OC(C)C)=C1SC=CS1 [Malotilate] | 1.02 | 0.85 | 1.12 | 1.33 | 1.17 | 1.07
Cc1cc(Nc2cc(CN3CCOCC3)c3nc(C)c(Cc4ccc(Cl)cc4F)n3n2)n[nH]1 | 0.94 | 0.87 | 0.85 | 0.96 | 0.97 | 0.8
O[C@@H]1CO[C@H]2[C@@H]1OC[C@@H]2O [Isosorbide] | 1.27 | 1.28 | 1.56 | 1.45 | 1.54 | 1.47
O=C1CCc2cc(OCCCCc3nnnn3C3CCCCC3)ccc2N1 [Cilostazol] | 1 | 0.82 | 0.73 | 0.63 | 0.85 | 0.68
O=C(O)C(=O)O.[NH-][C@@H]1CCCC[C@H]1[NH-].[Pt+2] [Oxaliplatin] | 0.67 | 0.92 | 1.17 | 0.92 | 0.76 | 0.85
CCC(C)(C)C(=O)O[C@H]1C[C@@H](C)C=C2C=C[C@H](C)[C@H](CC[C@@H]3C[C@@H](O)CC(=O)O3)[C@H]21 [Simvastatin] | 0.81 | 0.92 | 0.7 | 0.91 | 0.63 | 0.76
N[C@@H](CC(=O)N1CCn2c(nnc2C(F)(F)F)C1)Cc1cc(F)c(F)cc1F [Sitagliptin phosphate monohydrate] | 0.77 | 0.76 | 1 | 0.81 | 0.7 | 0.79
Nc1nc(=O)c2c([nH]1)NC[C@H](CNc1ccc(C(=O)N[C@@H](CCC(=O)O)C(=O)O)cc1)N2C=O [Calcium Levofolinate] | 0.83 | 0.67 | 0.68 | 0.69 | 0.92 | 0.96
NC(=O)c1ncn([C@@H]2O[C@H](CO)[C@@H](O)[C@H]2O)c1N [AICAR (Acadesine)] | 1.01 | 0.85 | 1.01 | 0.96 | 0.97 | 1.02
CCOc1nc2cccc(C(=O)O)c2n1Cc1ccc(-c2ccccc2-c2nnn[nH]2)cc1 [Candesartan] | 1.15 | 1.02 | 0.72 | 1.27 | 1.04 | 0.89
CN(C(=O)c1ccc(F)cc1C(F)(F)F)C1CCN(c2nnc(-c3ccnn3C)c3ccccc23)CC1 | 0.87 | 0.66 | 0.94 | 0.64 | 0.79 | 0.68
CCOC(=O)[C@H](CCc1ccccc1)N[C@H]1CS[C@H](c2cccs2)CN(CC(=O)O)C1=O [Temocapril HCl] | 0.9 | 0.94 | 0.92 | 0.63 | 1 | 0.87
CC(C)c1nc(N(C)S(C)(=O)=O)nc(-c2ccc(F)cc2)c1/C=C/[C@@H](O)C[C@@H](O)CC(=O)O [Rosuvastatin Calcium] | 0.74 | 0.75 | 0.85 | 0.68 | 0.7 | 0.71
CCN(CC)CCNC(=O)c1c(C)[nH]c(/C=C2\C(=O)Nc3ccc(F)cc32)c1C [Sunitinib Malate] | 0.62 | 0.58 | 0.8 | 0.66 | 0.56 | 0.72
CC1(C)O[C@@H]2C[C@H]3[C@@H]4CCC5=CC(=O)CC[C@]5(C)[C@@]4(F)[C@@H](O)C[C@]3(C)[C@]2(C(=O)CCl)O1 [Halcinonide] | 0.96 | 1.01 | 1.04 | 0.86 | 0.76 | 0.96

Some of the entries above, reformatted:
Structure (SMILES),growth (C. auris AR-384; 1 µM),growth (C. auris AR-384; 10 µM),growth (C. auris AR-386; 1 µM),growth (C. auris AR-386; 10 µM),growth (C. auris AR-387; 1 µM),growth (C. auris AR-387; 10 µM)
CCOC(=O)[C@H](CCc1ccccc1)N[C@H]1CS[C@H](c2cccs2)CN(CC(=O)O)C1=O [Temocapril HCl],0.9,0.94,0.92,0.63,1,0.87
CC(C)c1nc(N(C)S(C)(=O)=O)nc(-c2ccc(F)cc2)c1/C=C/[C@@H](O)C[C@@H](O)CC(=O)O [Rosuvastatin Calcium],0.74,0.75,0.85,0.68,0.7,0.71

(listing goes on)

Structure (SMILES) | growth (C. auris AR-384; 1 µM) | growth (C. auris AR-384; 10 µM) | growth (C. auris AR-386; 1 µM) | growth (C. auris AR-386; 10 µM) | growth (C. auris AR-387; 1 µM) | growth (C. auris AR-387; 10 µM)
CCCNS(=O)(=O)Nc1ncnc(OCCOc2ncc(Br)cn2)c1-c1ccc(Br)cc1 [Macitentan] | 0.87 | 0.7 | 0.83 | 0.83 | 0.73 | 0.67
Cc1cc(C)nc(NS(=O)(=O)c2ccc(N)cc2)n1 [Sulfamethazine] | 0.91 | 1.07 | 1.05 | 0.98 | 0.8 | 1.02
NC(=O)c1cn(Cc2c(F)cccc2F)nn1 [Rufinamide] | 0.62 | 0.61 | 1.08 | 0.84 | 1.21 | 0.74
COc1ccc([C@@H]2Sc3ccccc3N(CCN(C)C)C(=O)[C@@H]2OC(C)=O)cc1 [Diltiazem HCl] | 0.85 | 0.91 | 1.04 | 1.18 | 0.96 | 0.85
CCCN(CCC)CCc1cccc2c1CC(=O)N2 [Ropinirole HCl] | 0.8 | 0.84 | 0.65 | 0.96 | 0.69 | 0.76
C=C1[C@H](CO)[C@@H](O)C[C@@H]1n1cnc2c(=O)[nH]c(N)nc21 [Entecavir Hydrate] | 1.07 | 0.83 | 0.75 | 0.9 | 0.79 | 1.05
COc1ccc2c(c1)C(=O)N(CCc1ccc(S(=O)(=O)NC(=O)NC3CCCCC3)cc1)C(=O)C2(C)C [Gliquidone] | 0.92 | 1.1 | 1 | 0.95 | 1.19 | 0.99
CC(C(=O)O)c1cccc(Oc2ccccc2)c1 (configuration not stated) [Fenoprofen calcium hydrate] | 0.76 | 0.62 | 0.73 | 0.83 | 0.69 | 0.86
CO/N=C(\C(=O)N[C@@H]1C(=O)N2C(C(=O)O)=C(CSc3nc(=O)c(O)nn3C)CS[C@H]12)c1csc(N)n1 [Ceftriaxone Sodium Trihydrate] | 0.65 | 0.67 | 0.8 | 0.93 | 0.83 | 0.83
C=C(c1ccc(C(=O)O)cc1)c1cc2c(cc1C)C(C)(C)CCC2(C)C [Bexarotene] | 0.9 | 1.12 | 0.74 | 0.96 | 0.94 | 0.94
CC(C(=O)O)c1ccc2c(c1)CC(=O)c1ccccc1S2 (configuration not stated) [Zaltoprofen] | 0.87 | 0.89 | 0.88 | 0.99 | 0.85 | 1.14
Cc1cc(O)cc(C)c1Cl [Chloroxylenol] | 0.85 | 0.82 | 0.86 | 0.89 | 1.03 | 0.83
CCCCCCCCCCCC[N+](C)(C)CCOc1ccccc1 [Domiphen Bromide] | 1.11 | 0.6 | 1.12 | 0.11 | 0.81 | 1.54
O=C1[C@H](CC[C@H](O)c2ccc(F)cc2)[C@@H](c2ccc(O)cc2)N1c1ccc(F)cc1 [Ezetimibe] | 0.95 | 1.06 | 1.07 | 0.8 | 0.91 | 0.92
CCCCOc1ccc(C(=O)CCN2CCCCC2)cc1 [Dyclonine HCl] | 0.86 | 0.75 | 1.04 | 0.54 | 0.6 | 0.64
Cc1ncc(C[n+]2csc(CCO)c2C)c(N)n1 [Thiamine HCl (Vitamin B1)] | 0.68 | 0.99 | 0.56 | 0.77 | 1.07 | 1.12
Nc1ccc(/N=N/c2ccccc2)c(N)n1 [Phenazopyridine HCl] | 1.32 | 0.92 | 1 | 1.09 | 0.87 | 0.83
O=c1[nH]cnc2c1ncn2[C@H]1CC[C@@H](CO)O1 [Didanosine] | 1.15 | 1.36 | 1.24 | 0.74 | 0.77 | 0.9
CCCCNc1cc(C(=O)O)cc(S(N)(=O)=O)c1Oc1ccccc1 [Bumetanide] | 0.97 | 1.07 | 1.14 | 1.05 | 1.08 | 1.23
Cc1c(C)c2c(c(C)c1O)CC[C@@](C)(CCC[C@H](C)CCC[C@H](C)CCCC(C)C)O2 [Vitamin E] | 1.25 | 0.92 | 0.9 | 0.77 | 0.78 | 0.77
Cc1cc2c(cc1S(N)(=O)=O)S(=O)(=O)CCC2 [Meticrane] | 1.19 | 1.32 | 1.08 | 1.06 | 1.2 | 1.22
CC(CN1c2ccccc2Sc2ccccc21)N(C)C (configuration not stated) [Promethazine HCl] | 1.06 | 0.91 | 0.68 | 0.86 | 0.92 | 0.92
CC[C@H]1OC(=O)[C@H](C)[C@@H](O[C@H]2C[C@@](C)(OC)[C@@H](O)[C@H](C)O2)[C@H](C)[C@@H](O[C@@H]2O[C@H](C)C[C@H](N(C)C)[C@H]2O)[C@](C)(O)C[C@@H](C)CN(C)[C@H](C)[C@@H](O)[C@]1(C)O [Azithromycin] | 0.69 | 0.83 | 0.84 | 0.82 | 0.78 | 0.77
